Experimental data published in patent publication US20180177845A1, “METHOD FOR TREATMENT OR PREVENTION OF A CANCER” (priority 2016, published 2018).
These are yes or no findings as the source states them, for the method shown. For some assays here: In cells and extracts the contact can be indirect. Some entries that bind do so weakly or less than the wild type. For some assays here: Sequences can lack the tags named with a protein.

Protein sequences, listed by entry. Tags and fused reporters are not part of them. Residues count along the entry.
UniProt Q05397, residues 2-1052: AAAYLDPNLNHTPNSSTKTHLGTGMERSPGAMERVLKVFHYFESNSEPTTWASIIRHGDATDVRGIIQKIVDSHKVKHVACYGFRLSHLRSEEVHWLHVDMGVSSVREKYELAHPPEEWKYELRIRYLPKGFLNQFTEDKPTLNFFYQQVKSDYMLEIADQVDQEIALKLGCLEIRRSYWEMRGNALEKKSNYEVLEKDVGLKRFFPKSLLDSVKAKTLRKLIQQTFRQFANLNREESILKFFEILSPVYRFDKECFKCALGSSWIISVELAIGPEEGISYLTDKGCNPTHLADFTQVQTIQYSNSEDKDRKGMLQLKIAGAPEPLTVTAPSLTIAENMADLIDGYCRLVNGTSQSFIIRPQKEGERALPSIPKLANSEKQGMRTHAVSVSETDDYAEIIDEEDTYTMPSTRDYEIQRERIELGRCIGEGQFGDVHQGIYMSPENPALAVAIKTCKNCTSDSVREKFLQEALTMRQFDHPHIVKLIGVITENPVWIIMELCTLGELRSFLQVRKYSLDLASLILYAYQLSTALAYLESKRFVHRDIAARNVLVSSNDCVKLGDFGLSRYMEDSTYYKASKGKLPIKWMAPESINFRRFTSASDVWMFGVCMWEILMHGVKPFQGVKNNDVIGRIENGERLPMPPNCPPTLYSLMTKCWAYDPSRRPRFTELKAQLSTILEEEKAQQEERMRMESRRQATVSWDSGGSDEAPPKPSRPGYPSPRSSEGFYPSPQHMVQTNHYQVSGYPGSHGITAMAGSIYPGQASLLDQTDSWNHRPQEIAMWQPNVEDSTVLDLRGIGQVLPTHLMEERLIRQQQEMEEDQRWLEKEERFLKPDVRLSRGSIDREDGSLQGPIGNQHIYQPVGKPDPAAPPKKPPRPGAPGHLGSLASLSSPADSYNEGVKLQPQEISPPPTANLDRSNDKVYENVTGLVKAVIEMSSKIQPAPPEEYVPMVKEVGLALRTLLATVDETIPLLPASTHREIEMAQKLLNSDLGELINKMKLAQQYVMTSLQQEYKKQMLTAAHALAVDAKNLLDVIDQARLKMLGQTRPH

Legend:
[1] = biological target: β4 integrin (human) (UniProt P16144); experiment: far-Western on immunoprecipitated endogenous β4 integrin and in vitro pull-down (FIG. 1(c), 1(h))
[2] = biological target: Myc-tagged β4 integrin (UniProt P16144); experiment: far-Western on immunoprecipitated exogenous Myc-tagged β4 integrin (FIG. 1(h))
[3] = biological target: β4 integrin (human) (UniProt P16144); experiment: Ni-bead pull-down from MDA-MB-231 lysate, anti-β4 integrin Western blot (FIG. 1(g))
[4] = biological target: β4 integrin (human) (UniProt P16144); experiment: GST pull-down from HCT-116 lysate, anti-β4 integrin Western blot (FIG. 9(C))
[5] = biological target: focal adhesion kinase (FAK) (human) (UniProt Q05397); experiment: HA-tagged β4-cyto in HEK-293 cells (FIG. 9F)

B1: His-tagged FAK/N400 (protein, not shown: small tags and cut ends)
chain: MAAAYLDPNLNHTPSSSAKTHLGTGMERSPGAMERVLKVFHYFENSSEPTTWASIIRHGDATDVRGIIQKIVDCHKVKNVACYGLRLSHLQSEEVHWLHLDMGVSNVREKFELAHPPEEWKYELRIRYLPKGFLNQFTEDKPTLNFFYQQVKNDYMLEIADQVDQEIALKLGCLEIRRSYGEMRGNALEKKSNYEVLEKDVGLRRFFPKSLLDSVKAKTLRKLIQQTFRQFANLNREESILKFFEILSPVYRFDKECFKCALGSSWIISVELAIGPEEGISYLTDKGANPTHLADFNQVQTIQYSNSEDKDRKGMLQLKIAGAPEPLTVTAPSLTIAENMADLIDGYCRLVNGATQSFIIRPQKEGERALPSIPKLANNEKQGVRSHTVSVSETDDYAEI
- binding [1]: binds
- binding [2]: binds
- binding [3]: binds

B2: GST-FAK/N400 (protein, not shown: a dimerising Fc or GST)
chain: B1 chain
- binding [4]: binds

B3: β4 integrin cytodomain (protein, not shown: small tags and cut ends)
chain: NNMQRPGFATHAASINPTELVPYGLSLRLARLCTENLLKPDTRECAQLRQEVEENLNEVYRQISGVHKLQQTKFRQQPNAGKKQDHTIVDTVLMAPRSAKPALLKLTEKQVEQRAFHDLKVAPGYYTLTADQDARGMVEFQEGVELVDVRVPLFIRPEDDDEKQLLVEAIDVPAGTATLGRRLVNITIIKEQARDVVSFEQPEFSVSRGDQVARIPVIRRVLDGGKSQVSYRTQDGTAQGNRDYIPVEGELLFQPGEAWKELQVKLLELQEVDSLLRGRQVRRFHVQLSNPKFGAHLGQPHSTTIIIRDPDELDRSFTSQMLSSQPPPHGDLGAPQNPNAKAAGSRKIHFNWLPPSGKPMGYRVKYWIQGDSESEAHLLDSKVPSVELTNLYPYC
- binding [5]: binds
